Laboratory results from patent US20240199692A1 (priority 2019, published 2024).
At least one peptide structure holds a part that was inferred or is arguable (an end, a ring closure or a residue).

Biological target: T1, MMP2 (Homo sapiens, UniProt P08253)
T1 sequence (P08253 110-660): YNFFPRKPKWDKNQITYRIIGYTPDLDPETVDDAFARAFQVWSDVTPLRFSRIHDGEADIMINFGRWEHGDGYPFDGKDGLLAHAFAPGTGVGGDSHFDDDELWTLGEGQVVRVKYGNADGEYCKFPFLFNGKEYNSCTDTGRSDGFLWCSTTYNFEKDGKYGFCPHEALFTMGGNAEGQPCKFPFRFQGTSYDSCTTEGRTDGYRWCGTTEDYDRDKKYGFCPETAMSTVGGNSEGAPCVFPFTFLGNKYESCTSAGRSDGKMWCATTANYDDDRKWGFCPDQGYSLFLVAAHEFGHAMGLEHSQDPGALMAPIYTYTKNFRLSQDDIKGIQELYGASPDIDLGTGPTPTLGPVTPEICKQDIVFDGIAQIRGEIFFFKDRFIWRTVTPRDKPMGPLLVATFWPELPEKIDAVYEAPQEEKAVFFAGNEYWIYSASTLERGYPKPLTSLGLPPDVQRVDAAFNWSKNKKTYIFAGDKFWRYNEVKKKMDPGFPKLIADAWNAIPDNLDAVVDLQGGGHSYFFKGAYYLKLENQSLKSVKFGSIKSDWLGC
Assay: Inhibitory effects on human MMP2 (Method 1), enzyme assay with MOCAc-Pro-Leu-Gly-Leu-A2pr(Dnp)-Ala-Arg-NH2 substrate, 96-well
Type: biochemical
Settings: Test Example No. 1-1 (Method 1, 96-well microplate)
Experimental: In a reaction solution [50 mmol/L Tris-HCl (pH 7.5), 150 mmol/L NaCl, 10 mmol/L CaCl2, 0.05% Brij L23], 100 μg/mL human recombinant MMP2 enzyme and 1 mmol/L 4-Aminophenylmercuric acetate were mixed together, and reacted at 37° C. for 60 minutes. The human MMP2 activated through the reaction was poured into a 96-well microplate to reach a final concentration of 0.7 or 7 ng/mL.

Question: How did the IC50 turn out when `CC[C@H](C)[C@@H](C(=O)N1CCC[C@H]1C(N)=O)N(C)C(=O)[C@H](CC(C)C)NC(=O)[C@H](C)NC(=O)[C@H](CC(=O)O)NC(=O)[C@@H](CCCCN)NC(=O)CCCNC(=O)c1ccc(Oc2ccccc2)cc1` [Compound 123] was run?
Answer: 1.11 nM
